This data set is described as follows: general procedure: Boc solid-phase peptide synthesis; chloromethylated polystyrene resin crosslinked with 1 to 2 percent divinylbenzene (Lab Systems, Inc.); dicyclohexylcarbodiimide. To be noted: whole synthesis, scale 8.8 mmol.

Substance “N-Benzyloxycarbonyl-D-2-azetidinecarbonyl-N^im -benzyl-L-histidyl-O-benzyl-L-tyrosyl-O-benzyl-L-seryl-D-alanine methyl ester” returned an isolated mass of 4.1 g.
As for “N^α -Benzyloxycarbonyl-L-2-azetidinylcarbonyl-N^im -benzyl-L-histidyl-O-benzyl-L-tyrosyl-O-benzyl-L-seryl-D-alanine methyl ester”, the isolated mass is 4.1 g.

The record behind these values is US4043993A (Parke, Davis & Company, priority 1976, dated 1977).
